PubChem BioAssay AID686938 | Drosophila RNAi Screening Center | 2013
Purpose: 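Fly genes required for calcium entry once internal stores are emptied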 (primary screen). Cell system: Drosophila S2R+ cells. Knock-down reagent: long dsRNA against Drosophila genes, about 0.25 µg dsRNA per well, roughly 10,000 cells. Duration: 5 days of knock-down before the calcium assay. Conditions: thapsigargin (SERCA pump blocker) to empty calcium stores; entry signal taken 4 min after adding it. Read-out: 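Per-well fluo-4 fluorescence in two replicates, unnormalised, measured in resting cells and 4 min after store depletion by the SERCA blocker thapsigargin; ratio of the two present in few wells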. Direction: calcium entry signal: higher = stronger calcium signal after store depletion; resting calcium signal: higher = higher resting calcium signal. Rule for the call: 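Called when the plate z-score of the entry-to-rest ratio, mean of duplicates, falls below −3; wells with low overall dye signal (Fmax z below −2) or more than five off-targets excluded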. Calls: active = strongly reduced calcium entry; inactive = no strong reduction.
In all, the deposit lists about 23,000 reagents; shown is a random part of those with a known target gene and a result. Of all reagents, 75 (0.33%) were called active. 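Raw plate signals without normalisation; calls rest on plate z-scores that were not deposited; ratio present for only 364 wells.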 Entries without a mark were called inactive. A plus sign joins genes that one reagent is predicted to hit. Not stated in the record: the dose of the treatment.

With Nepl18 [DRSC14879], how do the results read?
calcium entry signal, replicate 1 (fluorescence units): 3.73e7; calcium entry signal, replicate 2 (fluorescence units): 6.02e7; resting calcium signal, replicate 1 (fluorescence units): 1.99e7; resting calcium signal, replicate 2 (fluorescence units): 2.60e7

With CG34396 [DRSC04245], what was measured?
calcium entry signal, replicate 1 (fluorescence units): 3.86e7; calcium entry signal, replicate 2 (fluorescence units): 5.05e7; resting calcium signal, replicate 1 (fluorescence units): 1.95e7; resting calcium signal, replicate 2 (fluorescence units): 2.28e7

What did the screen give for CG34396 [DRSC04246]?
calcium entry signal, replicate 1 (fluorescence units): 4.66e7; calcium entry signal, replicate 2 (fluorescence units): 4.60e7; resting calcium signal, replicate 1 (fluorescence units): 2.35e7; resting calcium signal, replicate 2 (fluorescence units): 2.09e7

How did the screen score sing + Axs [DRSC19333]?
calcium entry signal, replicate 1 (fluorescence units): 2.69e7; calcium entry signal, replicate 2 (fluorescence units): 3.20e7; resting calcium signal, replicate 1 (fluorescence units): 1.45e7; resting calcium signal, replicate 2 (fluorescence units): 1.39e7

Which result is listed for CanA-14F [DRSC20211]?
calcium entry signal, replicate 1 (fluorescence units): 2.81e7; calcium entry signal, replicate 2 (fluorescence units): 3.15e7; resting calcium signal, replicate 1 (fluorescence units): 1.59e7; resting calcium signal, replicate 2 (fluorescence units): 1.46e7

For CanA-14F [DRSC23296], what does the deposit list?
calcium entry signal, replicate 1 (fluorescence units): 3.97e7; calcium entry signal, replicate 2 (fluorescence units): 3.22e7; resting calcium signal, replicate 1 (fluorescence units): 1.92e7; resting calcium signal, replicate 2 (fluorescence units): 1.53e7

For Fbl6 [DRSC06335], what does the deposit list?
calcium entry signal, replicate 1 (fluorescence units): 1.94e7; calcium entry signal, replicate 2 (fluorescence units): 2.64e7; resting calcium signal, replicate 1 (fluorescence units): 1.02e7; resting calcium signal, replicate 2 (fluorescence units): 1.34e7

For CG34304 (retired record) [DRSC12810], what was measured?
calcium entry signal, replicate 1 (fluorescence units): 3.32e7; calcium entry signal, replicate 2 (fluorescence units): 6.57e7; resting calcium signal, replicate 1 (fluorescence units): 1.64e7; resting calcium signal, replicate 2 (fluorescence units): 3.08e7

For CG8034 [DRSC20076], what does the deposit list?
calcium entry signal, replicate 1 (fluorescence units): 2.72e7; calcium entry signal, replicate 2 (fluorescence units): 3.14e7; resting calcium signal, replicate 1 (fluorescence units): 1.47e7; resting calcium signal, replicate 2 (fluorescence units): 1.51e7

With CG9106 [DRSC20154], what does the deposit list?
calcium entry signal, replicate 1 (fluorescence units): 3.21e7; calcium entry signal, replicate 2 (fluorescence units): 3.96e7; resting calcium signal, replicate 1 (fluorescence units): 1.56e7; resting calcium signal, replicate 2 (fluorescence units): 1.81e7

Which result is listed for CG12517 [DRSC02173]?
calcium entry signal, replicate 1 (fluorescence units): 3.63e7; calcium entry signal, replicate 2 (fluorescence units): 4.22e7; resting calcium signal, replicate 1 (fluorescence units): 1.72e7; resting calcium signal, replicate 2 (fluorescence units): 1.93e7

Part of the list above in another layout:
CG9106 [DRSC20154]
- calcium entry signal, replicate 1 (fluorescence units): 3.21e7
- calcium entry signal, replicate 2 (fluorescence units): 3.96e7
- resting calcium signal, replicate 1 (fluorescence units): 1.56e7
- resting calcium signal, replicate 2 (fluorescence units): 1.81e7

CG12517 [DRSC02173]
- calcium entry signal, replicate 1 (fluorescence units): 3.63e7
- calcium entry signal, replicate 2 (fluorescence units): 4.22e7
- resting calcium signal, replicate 1 (fluorescence units): 1.72e7
- resting calcium signal, replicate 2 (fluorescence units): 1.93e7

Next entries:
With Sec24AB [DRSC06478], what does the deposit list?
calcium entry signal, replicate 1 (fluorescence units): 3.01e7; calcium entry signal, replicate 2 (fluorescence units): 3.26e7; resting calcium signal, replicate 1 (fluorescence units): 1.39e7; resting calcium signal, replicate 2 (fluorescence units): 1.65e7

Which result is listed for trv [DRSC13846]?
calcium entry signal, replicate 1 (fluorescence units): 3.73e7; calcium entry signal, replicate 2 (fluorescence units): 4.05e7; resting calcium signal, replicate 1 (fluorescence units): 1.81e7; resting calcium signal, replicate 2 (fluorescence units): 1.97e7

For trv [DRSC14559], how do the results read?
calcium entry signal, replicate 1 (fluorescence units): 3.51e7; calcium entry signal, replicate 2 (fluorescence units): 5.93e7; resting calcium signal, replicate 1 (fluorescence units): 1.88e7; resting calcium signal, replicate 2 (fluorescence units): 2.09e7

With trv [DRSC14560], how do the results read?
calcium entry signal, replicate 1 (fluorescence units): 2.94e7; calcium entry signal, replicate 2 (fluorescence units): 5.47e7; resting calcium signal, replicate 1 (fluorescence units): 1.57e7; resting calcium signal, replicate 2 (fluorescence units): 2.43e7

What did the screen give for trv [DRSC14561]?
calcium entry signal, replicate 1 (fluorescence units): 3.51e7; calcium entry signal, replicate 2 (fluorescence units): 5.28e7; resting calcium signal, replicate 1 (fluorescence units): 1.87e7; resting calcium signal, replicate 2 (fluorescence units): 2.22e7

How did the screen score ND-51L2 [DRSC07080]?
calcium entry signal, replicate 1 (fluorescence units): 3.62e7; calcium entry signal, replicate 2 (fluorescence units): 4.89e7; resting calcium signal, replicate 1 (fluorescence units): 1.81e7; resting calcium signal, replicate 2 (fluorescence units): 2.07e7

With spn-B [DRSC17063], what does the deposit list?
calcium entry signal, replicate 1 (fluorescence units): 2.45e7; calcium entry signal, replicate 2 (fluorescence units): 3.45e7; resting calcium signal, replicate 1 (fluorescence units): 1.30e7; resting calcium signal, replicate 2 (fluorescence units): 5.27e7

How did the screen score Zasp67 [DRSC10169]?
calcium entry signal, replicate 1 (fluorescence units): 3.43e7; calcium entry signal, replicate 2 (fluorescence units): 4.85e7; resting calcium signal, replicate 1 (fluorescence units): 1.69e7; resting calcium signal, replicate 2 (fluorescence units): 1.89e7

With Hex-A [DRSC18259], what does the deposit list?
calcium entry signal, replicate 1 (fluorescence units): 2.78e7; calcium entry signal, replicate 2 (fluorescence units): 5.15e7; resting calcium signal, replicate 1 (fluorescence units): 1.79e7; resting calcium signal, replicate 2 (fluorescence units): 3.19e7

What is on record for Ptp10D [DRSC20272]?
calcium entry signal, replicate 1 (fluorescence units): 3.77e7; calcium entry signal, replicate 2 (fluorescence units): 5.51e7; resting calcium signal, replicate 1 (fluorescence units): 1.89e7; resting calcium signal, replicate 2 (fluorescence units): 2.37e7
